Paper PMC12255766 (2025)
No constants are given. Whether binding was seen depends on the method and setting. In cells and extracts the contact can be indirect. Some binding calls cover weakened binding; strength is not graded here. Where a sequence is shown, tags or fusion partners need not be part of it. Blank lines part the entries; values can stand above or below the molecule they belong to.

Amino acid sequences for entries named in this document (tags omitted). Residues count along the entry.
UniProt P43220, residues 24-463: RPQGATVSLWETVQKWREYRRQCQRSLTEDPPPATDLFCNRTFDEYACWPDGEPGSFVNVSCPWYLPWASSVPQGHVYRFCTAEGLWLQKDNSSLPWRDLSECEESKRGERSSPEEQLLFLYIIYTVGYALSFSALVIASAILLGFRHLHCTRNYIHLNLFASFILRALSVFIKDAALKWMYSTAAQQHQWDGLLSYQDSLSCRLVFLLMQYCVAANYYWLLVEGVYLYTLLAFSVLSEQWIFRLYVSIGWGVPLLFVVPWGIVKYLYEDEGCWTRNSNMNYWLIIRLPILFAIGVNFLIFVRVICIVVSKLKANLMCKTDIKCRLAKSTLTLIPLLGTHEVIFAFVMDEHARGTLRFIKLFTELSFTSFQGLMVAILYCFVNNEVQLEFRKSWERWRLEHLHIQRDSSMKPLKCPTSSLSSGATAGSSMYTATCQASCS

Key:
[1] = biological target: T1, Nluc::LAG-2 (C. elegans DSL protein/Notch ligand LAG-2 fused to Nanoluciferase) (C. elegans) (UniProt P45442); test: FRET or BRET; NanoBRET saturation in living HEK293 cells, both proteins co-expressed in the same cells (cis); gradient of Venus acceptor DNA (0-3970 ng/well) over constant Nluc donor (30 ng/well); coelenterazine H 5 µM, HBSS with 25 mM HEPES pH 7.4, 37 °C; BRET50 from a one site total binding hyperbola
T1 sequence: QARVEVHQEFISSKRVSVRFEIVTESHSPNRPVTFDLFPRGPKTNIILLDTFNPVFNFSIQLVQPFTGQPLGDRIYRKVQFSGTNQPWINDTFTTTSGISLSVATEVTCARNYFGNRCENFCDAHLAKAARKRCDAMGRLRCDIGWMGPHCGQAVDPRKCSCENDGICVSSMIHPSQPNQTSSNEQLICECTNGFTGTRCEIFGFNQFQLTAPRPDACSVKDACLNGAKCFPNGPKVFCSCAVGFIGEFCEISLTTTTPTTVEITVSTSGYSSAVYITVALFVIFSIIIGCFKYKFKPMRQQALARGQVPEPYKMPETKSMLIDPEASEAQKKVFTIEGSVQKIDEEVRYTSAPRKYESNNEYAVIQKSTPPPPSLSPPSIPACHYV

[2] = biological target: T2, VN::LAT-1 (LAT-1 fused to the VN part of split Venus) (C. elegans) (UniProt G5EDW2); test: split reporter; competition BiFC in living C. elegans: VN::lat-1 (1 ng) and VC::lag-2 (1 ng) with 5-fold, 10-fold or 50-fold untagged lag-2 as competitor; heat shock as for BiFC
T2 sequence: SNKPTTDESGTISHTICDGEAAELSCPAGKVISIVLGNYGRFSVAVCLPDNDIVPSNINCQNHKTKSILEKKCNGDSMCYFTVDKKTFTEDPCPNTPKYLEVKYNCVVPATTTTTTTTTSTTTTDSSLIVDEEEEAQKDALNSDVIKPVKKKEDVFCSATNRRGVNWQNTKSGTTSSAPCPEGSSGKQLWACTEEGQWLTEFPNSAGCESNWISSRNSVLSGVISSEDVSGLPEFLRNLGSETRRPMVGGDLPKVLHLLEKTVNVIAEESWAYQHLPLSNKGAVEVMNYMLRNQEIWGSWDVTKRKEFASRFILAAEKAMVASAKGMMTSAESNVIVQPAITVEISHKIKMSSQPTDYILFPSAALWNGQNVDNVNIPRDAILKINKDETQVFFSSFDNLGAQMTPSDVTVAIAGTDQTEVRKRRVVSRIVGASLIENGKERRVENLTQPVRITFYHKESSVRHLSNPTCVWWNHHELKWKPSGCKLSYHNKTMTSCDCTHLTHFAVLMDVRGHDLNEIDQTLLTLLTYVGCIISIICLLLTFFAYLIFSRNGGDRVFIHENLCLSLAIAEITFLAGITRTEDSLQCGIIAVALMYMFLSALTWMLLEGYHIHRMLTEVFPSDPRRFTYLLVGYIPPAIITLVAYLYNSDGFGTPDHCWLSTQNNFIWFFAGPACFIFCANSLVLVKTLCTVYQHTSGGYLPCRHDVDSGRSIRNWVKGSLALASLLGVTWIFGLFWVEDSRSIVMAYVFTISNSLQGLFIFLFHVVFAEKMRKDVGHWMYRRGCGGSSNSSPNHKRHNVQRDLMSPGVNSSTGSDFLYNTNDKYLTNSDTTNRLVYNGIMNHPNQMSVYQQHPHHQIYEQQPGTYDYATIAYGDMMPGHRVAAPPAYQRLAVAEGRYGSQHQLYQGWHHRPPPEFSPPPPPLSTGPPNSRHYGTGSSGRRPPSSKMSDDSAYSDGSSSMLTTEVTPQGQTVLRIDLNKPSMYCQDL

[3] = biological target: T3, VC::GLP-1 (Notch receptor GLP-1 fused to the VC part of split Venus) (C. elegans) (UniProt P13508); test: split reporter; BiFC with split Venus (VN/VC) in living C. elegans, heat-shock promoter hsp16.41p, 3 h at 33 °C and 5 h recovery at 22 °C; fluorescence read in the pharynx region
T3 sequence: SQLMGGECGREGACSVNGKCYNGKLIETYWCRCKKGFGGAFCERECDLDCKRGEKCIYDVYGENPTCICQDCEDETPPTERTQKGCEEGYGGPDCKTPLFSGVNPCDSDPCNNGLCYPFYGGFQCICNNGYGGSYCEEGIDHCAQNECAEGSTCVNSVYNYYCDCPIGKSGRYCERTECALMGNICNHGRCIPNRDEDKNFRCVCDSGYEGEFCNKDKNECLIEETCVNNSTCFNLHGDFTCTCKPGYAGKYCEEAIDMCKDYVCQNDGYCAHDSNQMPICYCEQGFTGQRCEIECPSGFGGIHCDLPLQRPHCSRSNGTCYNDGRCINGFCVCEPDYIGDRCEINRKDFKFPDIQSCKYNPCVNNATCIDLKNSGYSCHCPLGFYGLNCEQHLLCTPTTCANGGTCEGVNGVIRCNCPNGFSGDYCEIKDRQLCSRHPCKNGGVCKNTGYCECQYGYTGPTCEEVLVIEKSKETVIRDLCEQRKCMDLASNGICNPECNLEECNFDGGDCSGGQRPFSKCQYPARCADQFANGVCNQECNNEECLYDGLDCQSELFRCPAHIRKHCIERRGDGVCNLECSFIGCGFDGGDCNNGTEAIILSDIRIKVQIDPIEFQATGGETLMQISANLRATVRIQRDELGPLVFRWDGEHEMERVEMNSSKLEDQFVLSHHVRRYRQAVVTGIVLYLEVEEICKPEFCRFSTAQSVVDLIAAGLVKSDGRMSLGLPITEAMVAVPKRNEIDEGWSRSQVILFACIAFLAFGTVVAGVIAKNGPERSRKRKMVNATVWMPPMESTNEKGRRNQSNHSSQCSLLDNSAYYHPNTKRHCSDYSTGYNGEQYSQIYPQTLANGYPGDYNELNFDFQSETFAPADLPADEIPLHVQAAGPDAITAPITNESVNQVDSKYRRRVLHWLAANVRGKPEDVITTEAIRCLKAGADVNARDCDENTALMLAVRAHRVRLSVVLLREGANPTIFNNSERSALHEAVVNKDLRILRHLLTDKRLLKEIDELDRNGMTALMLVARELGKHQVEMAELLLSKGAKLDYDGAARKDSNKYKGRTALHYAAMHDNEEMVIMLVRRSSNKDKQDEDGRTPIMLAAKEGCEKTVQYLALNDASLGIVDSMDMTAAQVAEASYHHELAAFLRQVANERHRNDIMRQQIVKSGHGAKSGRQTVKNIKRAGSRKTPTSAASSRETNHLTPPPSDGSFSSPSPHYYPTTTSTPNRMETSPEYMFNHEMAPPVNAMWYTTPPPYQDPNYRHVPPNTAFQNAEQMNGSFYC

binding [1]: no binding
Molecule: human glucagon-like peptide-1 receptor (hGLP1R) fused to a Venus protein (from UniProt P43220 24-463)

binding [2]: binds
B1: untagged LAG-2 (competitor in the competition BiFC assay) (ligand, UniProt P45442 16-402)
chain: QARVEVHQEFISSKRVSVRFEIVTESHSPNRPVTFDLFPRGPKTNIILLDTFNPVFNFSIQLVQPFTGQPLGDRIYRKVQFSGTNQPWINDTFTTTSGISLSVATEVTCARNYFGNRCENFCDAHLAKAARKRCDAMGRLRCDIGWMGPHCGQAVDPRKCSCENDGICVSSMIHPSQPNQTSSNEQLICECTNGFTGTRCEIFGFNQFQLTAPRPDACSVKDACLNGAKCFPNGPKVFCSCAVGFIGEFCEISLTTTTPTTVEITVSTSGYSSAVYITVALFVIFSIIIGCFKYKFKPMRQQALARGQVPEPYKMPETKSMLIDPEASEAQKKVFTIEGSVQKIDEEVRYTSAPRKYESNNEYAVIQKSTPPPPSLSPPSIPACHYV

binding [3]: binds
B2: LAG-2 fused to a part of split Venus (positive control pairing with GLP-1) (ligand, UniProt P45442 16-402)
chain: QARVEVHQEFISSKRVSVRFEIVTESHSPNRPVTFDLFPRGPKTNIILLDTFNPVFNFSIQLVQPFTGQPLGDRIYRKVQFSGTNQPWINDTFTTTSGISLSVATEVTCARNYFGNRCENFCDAHLAKAARKRCDAMGRLRCDIGWMGPHCGQAVDPRKCSCENDGICVSSMIHPSQPNQTSSNEQLICECTNGFTGTRCEIFGFNQFQLTAPRPDACSVKDACLNGAKCFPNGPKVFCSCAVGFIGEFCEISLTTTTPTTVEITVSTSGYSSAVYITVALFVIFSIIIGCFKYKFKPMRQQALARGQVPEPYKMPETKSMLIDPEASEAQKKVFTIEGSVQKIDEEVRYTSAPRKYESNNEYAVIQKSTPPPPSLSPPSIPACHYV
